We go through 1 substance from publication PMC3277884.

Amino acid sequences for entries named in this document (tags omitted).
UniProt Q9CQJ4: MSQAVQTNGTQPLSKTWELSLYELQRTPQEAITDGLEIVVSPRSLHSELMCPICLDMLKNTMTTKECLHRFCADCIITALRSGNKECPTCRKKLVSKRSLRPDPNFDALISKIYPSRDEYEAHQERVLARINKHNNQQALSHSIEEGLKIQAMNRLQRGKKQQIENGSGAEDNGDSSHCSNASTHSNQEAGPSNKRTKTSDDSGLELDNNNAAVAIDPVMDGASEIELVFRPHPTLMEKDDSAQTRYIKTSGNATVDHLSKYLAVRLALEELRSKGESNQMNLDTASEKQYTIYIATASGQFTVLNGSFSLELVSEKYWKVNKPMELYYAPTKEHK
UniProt Q8VDS3: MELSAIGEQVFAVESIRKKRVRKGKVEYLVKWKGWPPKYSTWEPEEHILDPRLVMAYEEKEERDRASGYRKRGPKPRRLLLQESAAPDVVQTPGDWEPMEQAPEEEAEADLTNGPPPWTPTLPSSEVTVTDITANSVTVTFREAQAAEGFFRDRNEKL

These are yes or no findings as the source states them, for the method shown. Binding seen in cells or lysates may run through a third protein. Some binding calls cover weakened binding; strength is not graded here.

The test deals with Ring1b (mouse (endogenous in ESCs)) (UniProt Q9CQJ4). The experiment in a line: co-IP; IP with anti-Ring1b antibodies from cellular extracts of ESCs (d0) or ESCs subjected to neural differentiation (d5), immunoblots for Ring1b and Cbx7.

Turning to Cbx7 (from UniProt Q8VDS3 1-158), the binding entry is “binds”.
